Test results as given in the supplement of paper PMC12823440, “Inhibitors supercharge kinase turnover through native proteolytic circuits” (Nature, 2025).
The list shows a part of the results. Hit calls seldom repeat between salt and free forms of one compound.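 Kinases, fused to nanoluciferase, were expressed in K562 cells; luminescence was measured every 4 h from 2 to 18 h as percent of control (DMSO = 100%, positive control = 0%). A time point is decreased if signal falls significantly (2 sigma). Hits were called by the authors by a rule that is not shown; the count of time points alone does not decide it.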

Chains of the proteins cited; added tags and fusions are not shown. Lines headed by an entry give the natural chain unless they say otherwise; changes in a name come on top.
UniProt Q9UM73: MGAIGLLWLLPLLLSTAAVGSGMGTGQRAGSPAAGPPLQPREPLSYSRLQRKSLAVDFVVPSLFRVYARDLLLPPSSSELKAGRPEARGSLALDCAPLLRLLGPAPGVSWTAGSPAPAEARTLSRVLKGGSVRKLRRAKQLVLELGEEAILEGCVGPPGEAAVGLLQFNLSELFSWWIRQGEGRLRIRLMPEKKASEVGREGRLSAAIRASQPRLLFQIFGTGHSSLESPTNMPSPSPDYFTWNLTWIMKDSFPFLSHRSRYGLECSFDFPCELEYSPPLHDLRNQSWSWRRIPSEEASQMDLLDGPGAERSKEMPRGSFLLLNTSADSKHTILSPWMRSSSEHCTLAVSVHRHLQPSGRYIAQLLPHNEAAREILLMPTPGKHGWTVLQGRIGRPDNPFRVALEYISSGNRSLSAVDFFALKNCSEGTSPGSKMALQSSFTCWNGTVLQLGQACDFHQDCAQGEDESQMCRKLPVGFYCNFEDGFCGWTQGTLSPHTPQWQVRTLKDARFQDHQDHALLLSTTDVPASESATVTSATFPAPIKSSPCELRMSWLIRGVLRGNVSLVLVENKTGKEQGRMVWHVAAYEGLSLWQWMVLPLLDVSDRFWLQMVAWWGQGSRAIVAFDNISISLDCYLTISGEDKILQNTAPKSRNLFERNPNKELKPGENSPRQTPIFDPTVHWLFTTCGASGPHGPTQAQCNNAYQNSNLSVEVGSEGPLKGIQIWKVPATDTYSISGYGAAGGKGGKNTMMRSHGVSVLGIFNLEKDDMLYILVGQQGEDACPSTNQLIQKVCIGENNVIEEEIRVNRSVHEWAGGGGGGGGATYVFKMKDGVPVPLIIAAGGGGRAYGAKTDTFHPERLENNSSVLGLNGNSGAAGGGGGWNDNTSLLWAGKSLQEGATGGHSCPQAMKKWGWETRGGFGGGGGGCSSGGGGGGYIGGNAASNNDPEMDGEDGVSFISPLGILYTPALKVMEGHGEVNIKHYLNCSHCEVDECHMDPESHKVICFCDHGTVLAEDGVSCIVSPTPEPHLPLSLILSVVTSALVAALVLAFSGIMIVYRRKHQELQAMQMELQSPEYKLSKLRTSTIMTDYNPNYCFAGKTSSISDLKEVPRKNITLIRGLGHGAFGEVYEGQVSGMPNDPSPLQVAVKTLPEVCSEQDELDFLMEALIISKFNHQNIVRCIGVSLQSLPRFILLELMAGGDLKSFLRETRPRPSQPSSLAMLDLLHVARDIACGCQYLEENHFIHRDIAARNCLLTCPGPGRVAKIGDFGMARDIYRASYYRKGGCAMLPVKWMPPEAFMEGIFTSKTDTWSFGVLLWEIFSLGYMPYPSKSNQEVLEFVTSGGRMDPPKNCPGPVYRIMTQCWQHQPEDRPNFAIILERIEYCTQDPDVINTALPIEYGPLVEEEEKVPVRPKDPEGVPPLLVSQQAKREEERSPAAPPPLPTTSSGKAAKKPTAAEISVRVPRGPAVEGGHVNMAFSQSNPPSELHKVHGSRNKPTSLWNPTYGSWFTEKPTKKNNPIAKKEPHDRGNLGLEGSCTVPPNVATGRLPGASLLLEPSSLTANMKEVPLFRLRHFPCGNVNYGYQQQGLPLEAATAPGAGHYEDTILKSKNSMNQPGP
UniProt O14965: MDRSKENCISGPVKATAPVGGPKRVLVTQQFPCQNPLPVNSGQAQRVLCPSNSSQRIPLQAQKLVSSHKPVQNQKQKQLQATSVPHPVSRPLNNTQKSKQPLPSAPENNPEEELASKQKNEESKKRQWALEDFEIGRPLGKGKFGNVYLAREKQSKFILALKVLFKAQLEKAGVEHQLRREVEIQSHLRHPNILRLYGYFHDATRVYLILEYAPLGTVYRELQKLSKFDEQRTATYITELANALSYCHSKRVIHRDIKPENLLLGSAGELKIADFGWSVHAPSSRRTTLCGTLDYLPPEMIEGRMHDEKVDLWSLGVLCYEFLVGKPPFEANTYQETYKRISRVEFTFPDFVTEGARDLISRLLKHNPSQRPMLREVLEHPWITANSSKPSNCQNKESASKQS
UniProt Q96GD4, whole entry: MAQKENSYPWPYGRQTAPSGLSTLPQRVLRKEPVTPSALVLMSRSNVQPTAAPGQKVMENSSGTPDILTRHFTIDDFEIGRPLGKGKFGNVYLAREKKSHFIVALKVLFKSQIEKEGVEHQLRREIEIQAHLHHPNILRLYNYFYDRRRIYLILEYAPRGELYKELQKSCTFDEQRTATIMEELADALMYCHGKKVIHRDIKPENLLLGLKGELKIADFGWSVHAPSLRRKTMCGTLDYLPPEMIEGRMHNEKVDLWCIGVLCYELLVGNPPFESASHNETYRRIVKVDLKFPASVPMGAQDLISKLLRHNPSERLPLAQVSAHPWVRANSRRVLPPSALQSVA
UniProt P51451: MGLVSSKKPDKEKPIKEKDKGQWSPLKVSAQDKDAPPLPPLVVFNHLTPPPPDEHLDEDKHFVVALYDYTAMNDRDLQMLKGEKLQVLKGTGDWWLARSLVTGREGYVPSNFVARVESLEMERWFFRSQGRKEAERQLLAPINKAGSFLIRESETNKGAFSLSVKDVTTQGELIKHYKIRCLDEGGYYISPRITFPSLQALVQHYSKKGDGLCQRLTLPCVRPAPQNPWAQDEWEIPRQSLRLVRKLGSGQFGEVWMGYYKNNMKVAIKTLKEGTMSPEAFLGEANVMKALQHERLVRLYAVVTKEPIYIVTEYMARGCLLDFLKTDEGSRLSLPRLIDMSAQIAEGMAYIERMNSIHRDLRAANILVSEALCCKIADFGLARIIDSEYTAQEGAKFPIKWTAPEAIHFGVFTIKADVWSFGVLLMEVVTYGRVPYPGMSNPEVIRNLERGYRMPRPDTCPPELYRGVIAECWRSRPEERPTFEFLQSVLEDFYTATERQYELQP
UniProt P51813: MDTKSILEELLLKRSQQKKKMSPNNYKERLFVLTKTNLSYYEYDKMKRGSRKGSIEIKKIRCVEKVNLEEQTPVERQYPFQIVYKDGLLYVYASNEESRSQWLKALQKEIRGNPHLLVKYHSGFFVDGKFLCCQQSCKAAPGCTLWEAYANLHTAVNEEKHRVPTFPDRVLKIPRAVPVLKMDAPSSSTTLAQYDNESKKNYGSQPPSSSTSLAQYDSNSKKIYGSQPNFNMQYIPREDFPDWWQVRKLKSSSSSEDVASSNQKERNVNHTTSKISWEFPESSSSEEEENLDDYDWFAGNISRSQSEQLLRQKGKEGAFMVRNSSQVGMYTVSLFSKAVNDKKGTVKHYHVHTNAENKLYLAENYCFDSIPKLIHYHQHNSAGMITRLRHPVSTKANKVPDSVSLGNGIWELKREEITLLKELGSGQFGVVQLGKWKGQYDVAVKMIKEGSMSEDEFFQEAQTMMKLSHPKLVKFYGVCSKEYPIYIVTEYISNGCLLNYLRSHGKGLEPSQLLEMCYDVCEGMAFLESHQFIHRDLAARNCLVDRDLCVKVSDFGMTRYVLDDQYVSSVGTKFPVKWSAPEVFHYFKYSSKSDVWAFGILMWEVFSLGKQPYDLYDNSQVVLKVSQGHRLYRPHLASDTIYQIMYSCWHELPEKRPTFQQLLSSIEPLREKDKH
UniProt P15056, whole entry, looked up: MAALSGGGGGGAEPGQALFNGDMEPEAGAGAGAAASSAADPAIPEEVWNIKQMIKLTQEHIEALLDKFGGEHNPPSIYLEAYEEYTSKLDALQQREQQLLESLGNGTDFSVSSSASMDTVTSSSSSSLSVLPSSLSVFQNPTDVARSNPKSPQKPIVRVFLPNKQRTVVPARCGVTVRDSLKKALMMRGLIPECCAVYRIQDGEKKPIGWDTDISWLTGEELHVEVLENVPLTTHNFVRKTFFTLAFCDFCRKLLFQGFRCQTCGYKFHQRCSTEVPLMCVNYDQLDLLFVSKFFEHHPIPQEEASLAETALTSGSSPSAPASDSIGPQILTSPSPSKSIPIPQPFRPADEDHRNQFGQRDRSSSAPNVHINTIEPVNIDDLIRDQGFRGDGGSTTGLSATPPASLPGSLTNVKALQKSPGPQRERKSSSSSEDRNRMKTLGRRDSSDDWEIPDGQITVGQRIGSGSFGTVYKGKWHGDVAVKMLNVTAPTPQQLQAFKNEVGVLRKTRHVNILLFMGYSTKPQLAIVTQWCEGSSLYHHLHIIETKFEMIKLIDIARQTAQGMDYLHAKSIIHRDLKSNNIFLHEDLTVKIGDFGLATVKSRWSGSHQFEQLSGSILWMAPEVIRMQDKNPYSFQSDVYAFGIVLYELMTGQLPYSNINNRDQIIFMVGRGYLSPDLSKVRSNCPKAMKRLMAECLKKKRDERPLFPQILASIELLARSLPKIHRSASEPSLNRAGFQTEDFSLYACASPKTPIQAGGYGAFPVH
UniProt Q06187: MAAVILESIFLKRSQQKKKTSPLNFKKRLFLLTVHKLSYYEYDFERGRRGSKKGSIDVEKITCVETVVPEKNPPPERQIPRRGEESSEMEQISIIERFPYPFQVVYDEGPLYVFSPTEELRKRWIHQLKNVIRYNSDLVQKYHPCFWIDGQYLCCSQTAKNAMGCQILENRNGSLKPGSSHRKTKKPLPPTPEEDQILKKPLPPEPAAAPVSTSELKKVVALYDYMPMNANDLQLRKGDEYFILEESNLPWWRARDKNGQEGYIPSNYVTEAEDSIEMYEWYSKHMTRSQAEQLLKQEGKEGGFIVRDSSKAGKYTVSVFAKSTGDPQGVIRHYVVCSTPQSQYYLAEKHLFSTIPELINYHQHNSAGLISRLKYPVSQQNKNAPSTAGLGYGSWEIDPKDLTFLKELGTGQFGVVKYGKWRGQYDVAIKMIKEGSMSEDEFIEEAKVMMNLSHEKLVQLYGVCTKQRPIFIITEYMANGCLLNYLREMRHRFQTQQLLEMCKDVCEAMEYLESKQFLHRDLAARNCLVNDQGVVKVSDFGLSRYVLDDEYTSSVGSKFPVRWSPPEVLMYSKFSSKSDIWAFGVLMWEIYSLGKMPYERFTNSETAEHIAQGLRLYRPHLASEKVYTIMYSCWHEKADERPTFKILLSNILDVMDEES
UniProt Q13555: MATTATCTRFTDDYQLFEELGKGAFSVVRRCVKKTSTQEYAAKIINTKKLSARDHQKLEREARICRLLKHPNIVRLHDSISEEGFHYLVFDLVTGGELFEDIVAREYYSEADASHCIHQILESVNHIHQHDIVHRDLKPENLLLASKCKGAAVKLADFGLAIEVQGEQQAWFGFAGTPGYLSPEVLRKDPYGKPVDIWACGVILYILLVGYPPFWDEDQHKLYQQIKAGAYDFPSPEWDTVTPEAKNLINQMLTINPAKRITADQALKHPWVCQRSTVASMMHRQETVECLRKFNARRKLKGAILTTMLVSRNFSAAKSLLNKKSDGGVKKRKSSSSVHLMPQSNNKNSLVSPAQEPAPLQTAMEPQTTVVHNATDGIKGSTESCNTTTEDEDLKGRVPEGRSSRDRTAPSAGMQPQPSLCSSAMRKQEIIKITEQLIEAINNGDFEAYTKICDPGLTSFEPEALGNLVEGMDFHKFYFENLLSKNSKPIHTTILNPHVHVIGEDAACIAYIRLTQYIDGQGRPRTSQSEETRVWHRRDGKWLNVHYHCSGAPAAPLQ
UniProt Q00526: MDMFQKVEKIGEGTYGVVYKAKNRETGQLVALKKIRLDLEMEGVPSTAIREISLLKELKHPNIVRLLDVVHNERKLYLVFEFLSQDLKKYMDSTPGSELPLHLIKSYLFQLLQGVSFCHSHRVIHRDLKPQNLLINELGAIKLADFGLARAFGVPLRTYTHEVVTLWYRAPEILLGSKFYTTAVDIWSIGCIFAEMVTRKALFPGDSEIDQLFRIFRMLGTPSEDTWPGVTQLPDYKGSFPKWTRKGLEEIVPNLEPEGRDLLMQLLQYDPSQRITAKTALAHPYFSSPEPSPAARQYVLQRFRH
UniProt Q00535, whole entry, looked up: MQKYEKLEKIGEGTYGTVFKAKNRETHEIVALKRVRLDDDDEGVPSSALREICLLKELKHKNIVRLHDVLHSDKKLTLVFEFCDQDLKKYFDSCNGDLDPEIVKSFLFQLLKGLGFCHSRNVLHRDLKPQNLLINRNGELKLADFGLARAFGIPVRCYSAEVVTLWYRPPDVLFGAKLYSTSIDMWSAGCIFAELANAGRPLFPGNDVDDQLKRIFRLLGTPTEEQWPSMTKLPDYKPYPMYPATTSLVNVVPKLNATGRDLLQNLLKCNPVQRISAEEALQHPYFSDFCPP
UniProt P41240: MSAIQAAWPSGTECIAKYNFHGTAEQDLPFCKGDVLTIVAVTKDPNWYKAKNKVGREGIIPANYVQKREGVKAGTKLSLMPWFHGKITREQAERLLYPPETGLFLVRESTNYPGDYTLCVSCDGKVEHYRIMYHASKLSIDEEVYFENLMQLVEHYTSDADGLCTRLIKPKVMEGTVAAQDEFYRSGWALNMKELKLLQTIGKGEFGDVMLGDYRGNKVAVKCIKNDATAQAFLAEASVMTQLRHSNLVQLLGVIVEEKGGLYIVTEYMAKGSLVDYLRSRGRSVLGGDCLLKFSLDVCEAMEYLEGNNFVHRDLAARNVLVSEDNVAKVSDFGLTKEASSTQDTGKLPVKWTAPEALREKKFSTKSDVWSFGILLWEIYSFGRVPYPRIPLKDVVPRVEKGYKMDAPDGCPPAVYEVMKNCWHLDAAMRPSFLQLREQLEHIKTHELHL

Experiments:
Experiment in all cases: number of time points (of 5) at which kinase-Nluc abundance scored as decreased, DMSO-normalised (count); higher = more persistent destabilization
Details in all cases: K562; 2-18 h
[1] = target: ALK (UniProt Q9UM73)
[2] = target: ARAF (UniProt P10398)
[3] = target: AURKA (UniProt O14965)
[4] = target: AURKB (UniProt Q96GD4)
[5] = target: AURKC (UniProt Q9UQB9)
[6] = target: BLK (UniProt P51451)
[7] = target: BMX (UniProt P51813)
[8] = target: BRAF (UniProt P15056)
[9] = test system: BRAF_V600E
[10] = target: BTK (UniProt Q06187)
[11] = target: CAMK2A (UniProt Q9UQM7)
[12] = target: CAMK2G (UniProt Q13555)
[13] = target: CDK10 (UniProt Q15131)
[14] = target: CDK2 (UniProt P24941)
[15] = target: CDK3 (UniProt Q00526)
[16] = target: CDK5 (UniProt Q00535)
[17] = target: CDK6 (UniProt Q00534)
[18] = target: CHEK2 (UniProt O96017)
[19] = target: CSF1R (UniProt P07333)
[20] = target: CSK (UniProt P41240)

Measured: number of time points

CNc1cc2c(Nc3cccc(Br)c3)ncnc2cn1 (10 µM)
0: all assays above

CN1CCC(Nc2ccc(C(=O)Nc3cc(-c4ccc5c(c4)OCO5)[nH]n3)cc2)CC1 (10 µM)
3: [3]
2: [4]
1: [9]
0: all other assays above

Cn1cnc2c(F)c(Nc3ccc(Br)cc3F)c(C(=O)NOCCO)cc21 [Binimetinib] (10 µM)
4: [4]
0: all other assays above

CCOC(=O)c1c(C)[nH]c(C=C2C(=O)Nc3ccccc32)c1C (10 µM)
0: all assays above

N=C(NC(=N)N1CCCC1)Nc1ccc(OC(F)(F)F)cc1 (10 µM)
0: all assays above

CCOC(=O)c1c(N2CCc3ccc(OC)cc3C2)oc(C=C2C=Nc3ncccc32)c1O (10 µM)
0: all assays above

CCn1c(N)c(C(=O)NC)c(=O)c2ccc(C#CC(C)(O)COC)nc21 (stereo not given) (10 µM)
0: all assays above

C[C@@H]1CN(Cc2ccc(F)cc2)[C@@H](C)CN1C(=O)c1cc2c(C(=O)C(=O)N(C)C)cn(C)c2cc1Cl [Talmapimod] (10 µM)
0: all assays above

Cc1ccc(NC(=O)N2CCN(c3nc(N)nc4sc(-c5cccnc5)nc34)CC2)cc1 [PI4KIII beta inhibitor 3] (10 µM)
0: all assays above

For reference, 2 of the compounds above.
N=C(NC(=N)N1CCCC1)Nc1ccc(OC(F)(F)F)cc1 (10 µM)
0: all assays above

CCOC(=O)c1c(N2CCc3ccc(OC)cc3C2)oc(C=C2C=Nc3ncccc32)c1O (10 µM)
0: all assays above

(cont.)

O=C(Nc1ccccc1C(=O)NC1CCCCNC1=O)c1cc2ccccc2s1 (stereo not given) (10 µM)
1: [6]
0: all other assays above

COc1cc2c(cc1OC)[C@@H]1C(=O)c3ccc4c(c3O[C@@H]1CO2)C=CC(C)(C)O4 [Deguelin] (10 µM)
2: [6]
3: [3]
0: all other assays above

NC(=O)c1ccccc1Nc1ccnc(Nc2cccc(O)c2)n1 (10 µM)
2: [12]
1: [6] | [9] | [18]
3: [3] | [4] | [7]
0: all other assays above

CCCCNc1ncc2c(-c3ccc(F)cc3)nn(CC3CCC(N)CC3)c2n1 (stereo not given) (2.5 µM)
0: all assays above
